Reference: US20020151708A1
Results are given in words; binding and its absence hold for the method and conditions named. Binding seen in cells or lysates may run through a third protein. Some results given as binding are weak or reduced against the parent protein; the word gives no strength. Where a sequence is shown, tags or fusion partners need not be part of it.

By UniProt entry, the sequences of proteins in these tests, tags left out. Residues count along the entry.
UniProt Q27975, residues 2-641: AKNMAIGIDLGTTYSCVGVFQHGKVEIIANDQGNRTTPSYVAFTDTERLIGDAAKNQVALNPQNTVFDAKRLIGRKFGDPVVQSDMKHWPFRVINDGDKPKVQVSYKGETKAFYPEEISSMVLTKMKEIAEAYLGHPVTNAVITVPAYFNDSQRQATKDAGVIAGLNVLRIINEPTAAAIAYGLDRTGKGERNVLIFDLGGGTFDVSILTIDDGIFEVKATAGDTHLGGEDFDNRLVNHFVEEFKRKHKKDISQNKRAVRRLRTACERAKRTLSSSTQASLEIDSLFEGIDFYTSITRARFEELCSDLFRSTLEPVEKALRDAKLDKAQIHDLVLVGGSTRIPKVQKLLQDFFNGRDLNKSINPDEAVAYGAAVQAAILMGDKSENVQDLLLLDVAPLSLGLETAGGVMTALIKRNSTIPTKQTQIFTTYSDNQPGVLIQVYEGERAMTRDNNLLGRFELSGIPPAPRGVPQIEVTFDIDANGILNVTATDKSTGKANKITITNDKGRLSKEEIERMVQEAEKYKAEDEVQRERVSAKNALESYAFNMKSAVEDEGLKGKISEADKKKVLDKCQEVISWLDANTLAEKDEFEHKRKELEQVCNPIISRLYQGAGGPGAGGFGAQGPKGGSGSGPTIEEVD
UniProt P0DMV8, residues 1-351: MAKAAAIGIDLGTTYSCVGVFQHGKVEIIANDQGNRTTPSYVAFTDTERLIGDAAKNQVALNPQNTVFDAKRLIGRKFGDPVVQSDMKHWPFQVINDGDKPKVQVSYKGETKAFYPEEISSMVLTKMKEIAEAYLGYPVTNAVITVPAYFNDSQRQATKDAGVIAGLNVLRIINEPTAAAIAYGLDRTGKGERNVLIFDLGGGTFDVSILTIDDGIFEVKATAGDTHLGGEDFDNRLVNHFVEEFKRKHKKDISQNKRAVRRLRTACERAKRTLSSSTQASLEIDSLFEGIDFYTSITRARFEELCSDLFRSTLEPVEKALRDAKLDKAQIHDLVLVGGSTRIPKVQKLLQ

Legend:
[1] = molecular target: Hsp70 from a crude homogenate of bovine heart (bovine) (UniProt Q27975); assay: pull-down from bovine heart homogenate on Ni2+ resin loaded with His-tagged HspBP1, Western blot and Coomassie staining
[2] = molecular target: ATP-binding fragment of human Hsp70 (amino acids 1-351), expressed in bacteria without His-tag (human) (UniProt P0DMV8); assay: Ni2+ affinity resin pull-down, Western blot with anti-6XHis and anti-Hsp70
[3] = molecular target: Hsp70 from a crude homogenate of bovine heart (bovine) (UniProt Q27975); assay: pull-down from bovine heart homogenate on Ni2+ resin loaded with His-tagged HspBP1

Measured: binding

B1: His-tagged HspBP1 (human heat-shock protein-binding protein 1, expressed in bacteria from pET28a) (protein, not shown: small tags and cut ends)
chain: MSDEGSRGSRLPLALPPASQGCSSGGGGGGSSAGGSGNSRPPRNLQGLLQMAITAGSEEPDPPPEPMSEERRQWLQEAMSAAFRGQREEVEQMKSCLRVLSQPMPPTAGEAEQAADQQEREGALELLADLCENMDNAADFCQLSGMHLLVGRYLEAGAAGLRWRAAQLIGTCSQNVAAIQEQVLGLGALRKLLRLLDRDACDTVRVKALFAISCLVREQEAGLLQFLRLDGFSVLMRAMQQQVQKLKVKSAFLLQNLLVGHPEHKGTLCSMGMVQQLVALVRTEHSPFHEHVLGALCSLVTDFPQGVRECREPELGLEELLRHRCQLLQQHEEYQEELEFCEKLLQTCFSSPADDSMDR
binds: [1] | [2] | [3]
